# Source: PubChem BioAssay AID1671190 (National Center for Advancing Translational Sciences (NCATS), 2021)
# The chains behind the UniProt entries cited, without tags or fusion partners. Where a name states a change or a piece, a line headed by the entry shows the natural chain unless it says otherwise.
# UniProt P18054: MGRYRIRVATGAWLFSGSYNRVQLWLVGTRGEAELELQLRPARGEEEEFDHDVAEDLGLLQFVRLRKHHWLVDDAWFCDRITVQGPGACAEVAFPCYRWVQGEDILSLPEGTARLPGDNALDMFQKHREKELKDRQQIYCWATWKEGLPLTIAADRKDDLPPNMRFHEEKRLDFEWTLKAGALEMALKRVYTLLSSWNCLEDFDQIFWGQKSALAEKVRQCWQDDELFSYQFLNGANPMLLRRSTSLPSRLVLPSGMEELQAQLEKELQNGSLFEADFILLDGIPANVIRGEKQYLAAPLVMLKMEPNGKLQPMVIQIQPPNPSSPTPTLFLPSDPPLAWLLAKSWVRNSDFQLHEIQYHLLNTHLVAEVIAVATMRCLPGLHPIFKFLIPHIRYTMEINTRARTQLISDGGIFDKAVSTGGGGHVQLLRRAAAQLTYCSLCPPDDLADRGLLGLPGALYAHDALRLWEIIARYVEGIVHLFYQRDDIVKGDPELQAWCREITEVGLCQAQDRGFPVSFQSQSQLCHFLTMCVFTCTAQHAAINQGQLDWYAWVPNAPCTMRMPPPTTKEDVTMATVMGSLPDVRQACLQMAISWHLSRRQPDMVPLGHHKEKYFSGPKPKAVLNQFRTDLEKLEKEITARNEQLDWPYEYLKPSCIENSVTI
# The campaign covered roughly 580,000 compounds. About 6,100 (1.1%) were called active. This list was built around the results that the source calls inconclusive (neither active nor inactive); the mix of calls is not that of the screen. Calls come from the whole dose curve; as a rule, active = well fitted inhibition curve with a large enough effect; inconclusive = small, poorly fitted or top-dose-only effect, or another doubt; inactive = no such curve, though single readings can be large or run the other way. Where the call is inconclusive, the potency comes from a doubtful curve fit.
# Molecular target: Polyunsaturated fatty acid lipoxygenase ALOX12 (Homo sapiens) (UniProt P18054)
# Assay: Primary qHTS assay for inhibitors of human arachidonate 12S-lipoxygenase (ALOX12): Round 2
# Conditions: purified 12hLO, xylenol orange hydroperoxide absorbance; activity change, negative = inhibition: at 108 µM (top of the series) unless noted
# Procedure, shortened: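 Purified human 12hLO (150 nM final) in 25 mM Hepes, 0.01% Triton X-100, pH 7.0 was preincubated 15 min at room temperature with compound. Then 40 uM arachidonic acid was added, 30 min. Hydroperoxide was read by Fe-XO absorbance ratio 573/405 nm.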
# % is set by controls: 0 for no effect and ±100 for the full control effect; potency is the fitted concentration of half-maximal effect.
Structure (SMILES),Potency,"activity change, negative = inhibition"
CN1CCC(OC2CCN(C(=O)c3ccc(Br)cc3)CC2)CC1,inactive,
O=C1N/C(=N\N=C\c2cccs2)SC1Cc1ccc(Cl)c(Cl)c1 (stereo not drawn),inactive,
CC1C(=O)C(C)C(c2ccc(Cl)cc2)NC1c1ccc(Cl)cc1 (stereo not drawn),"inconclusive: 28.2 µM [inhibitor, partial curve, poor fit]",
COc1ccc(-c2nc3sc(CCNC(=O)Cc4ccccc4)c(C)n3n2)cc1,"inconclusive: 158 µM [inhibitor, partial curve, poor fit]",
CSc1cccc(NC(=O)Cc2cccs2)c1,"inconclusive: 22.4 µM [inhibitor, single point]",
CCCCCCCCNCCS(=O)(=O)NCc1ccc(OC)cc1,"inconclusive: 70.8 µM [inhibitor, partial curve, poor fit]",
Cc1ccc2nsnc2c1NC(=O)c1ccc(C#N)cc1F,"inconclusive: 39.8 µM [inhibitor, partial curve, poor fit]",
CNC(=O)c1[nH]cnc1C(=O)Nc1ccccn1,inactive,
Cc1ccccc1-c1nnc(SCc2coc(-c3cccs3)n2)n1C,"inconclusive: 2.82 µM [inhibitor, full curve, poor fit]",
O=C(NCCCN1CCC(Cc2ccccc2)CC1)C1CCN(S(=O)(=O)N2CCOCC2)CC1,,inconclusive: -31.8% [inhibitor]
COc1cccc(-c2nccc3c(=O)cc(N(C)C)oc23)c1,"inconclusive: 112 µM [inhibitor, partial curve, poor fit]",
CCCS(=O)(=O)N1CCC(n2c(C)nc3cccnc32)CC1,inactive,
Oc1oc(-c2ccccc2)nc1C=Nc1cccc2ccccc12,inactive,
O=C(O)CCCN1CCOCC1,"inconclusive: 39.8 µM [inhibitor, partial curve, poor fit]",
COc1ccc(SCc2noc(C(=O)NC(C)C)c2C(=O)O)cc1,"inconclusive: 15.8 µM [inhibitor, partial curve, poor fit]",
CCc1ccccc1NC(=O)CN(C)CC(=O)NC(=O)NCC(F)(F)F,inactive,
CCCn1ccnc1SCC(=O)Nc1sc2c(c1C#N)CCCC2,"inconclusive: 1.58 µM [inhibitor, full curve, poor fit]",
C#Cc1ccc([C@H]2C=C(C(=O)O)O[C@@H](OCc3ccc(CO)cc3)C2)cc1,active: 44.7 µM,
CCc1ccc(OCC(=O)Nc2cc3c(cc2S(=O)(=O)c2ccc(C)cc2)n(C)c(=O)n3C)cc1,"inconclusive: 100 µM [inhibitor, single point]",
CCc1ccc(C(=O)c2cn(CC(=O)Nc3cc(OC)ccc3OC)c3ccc(Cl)cc3c2=O)cc1,"inconclusive: 5.62 µM [inhibitor, partial curve, poor fit]",
CCSc1nnc(NC(=O)C(C(F)(F)F)C(F)(F)F)s1,"inconclusive: 44.7 µM [inhibitor, partial curve, poor fit]",
OCCNc1nc(Nc2ccc(Br)cc2)nc2nccnc12,"inconclusive: 56.2 µM [inhibitor, single point]",
CCc1nn2c(=O)cc(CNc3cccc(C(C)=O)c3)nc2s1,"inconclusive: 39.8 µM [inhibitor, partial curve, poor fit]",

Structure (SMILES),Potency,"activity change, negative = inhibition"
O=C(c1ccoc1)N1CCN(c2cc(-c3cccc(F)c3)nc3cc(-c4cccc(Cl)c4)nn23)CC1,"inconclusive: 22.4 µM [inhibitor, partial curve, poor fit]",
S=C(NCc1ccco1)NCc1ccco1,active: 31.6 µM,
OC[C@@H]1O[C@H](CNCc2ccc(F)cc2)[C@H](N2CCOCC2)[C@@H]1O,active: 28.2 µM,
C=CCSC1=N/C(=C\c2ccc(C(C)C)cc2)C(=O)S1,"inconclusive: 56.2 µM [inhibitor, partial curve, poor fit]",
CCn1nnc2cc(C(=O)Nc3nc(-c4ccc5c(c4)CCC(=O)N5)cs3)ccc21,"inconclusive: 6.31 µM [inhibitor, full curve]",
NS(=O)(=O)c1ccc(N=Nc2c(O)[nH]c3ccc(Br)cc23)cc1,"inconclusive: 56.2 µM [inhibitor, partial curve, poor fit]",
Cc1noc(C)c1Cc1ccc(C(=O)N2CCCCCCNC(=O)CC2)o1,inactive,
O=C1C(c2ccccc2)NC(=S)N1C1CCCCC1 (stereo not drawn),"inconclusive: 35.5 µM [inhibitor, partial curve, poor fit]",
NCCNS(=O)(=O)c1cccc2cnccc12,"inconclusive: 2 µM [inhibitor, full curve, poor fit]",
Cc1ccc(CNc2ccc(C(=O)O)cc2)cc1,"inconclusive: 39.8 µM [inhibitor, partial curve, poor fit]",
Cc1cnc(C2CCOCC2)n1C1CCN(C(=O)C(C)Oc2ccccc2)CC1 (stereo not drawn),inactive,
CC(CCc1ccccc1)NC(=O)COC(=O)c1ccc([N+](=O)[O-])cc1 (stereo not drawn),inactive,
CCOC(=O)c1cnc2c(ccc3ccccc32)c1Nc1cccc(Cl)c1,inactive,
COc1ccc(-n2ccn3c(CCC(=O)N4CCN(c5cccc(C)c5C)CC4)nnc3c2=O)cc1,"inconclusive: 100 µM [inhibitor, partial curve, poor fit]",
CCOC(=O)C1CCN(C(=O)CCc2ccccc2)CC1,inactive,
CC(=O)Nc1ccc(/C=C/c2ccc3cccc([N+](=O)[O-])c3n2)cc1,"inconclusive: 56.2 µM [inhibitor, partial curve, poor fit]",
COCCC(=O)N1CCC2(CC1)CN(C(C)=O)CC2COC (stereo not drawn),inactive,
C=CCn1c(-c2cccs2)nc2nc3ccccc3nc21,"inconclusive: 100 µM [inhibitor, single point]",
O=C(O)c1ccc(/C=C/C(=O)c2nc3ccccc3s2)cc1,"inconclusive: 39.8 µM [inhibitor, partial curve, poor fit]",
CN(C(=O)Cn1nc(-c2ccccc2)ccc1=O)C1CCS(=O)(=O)C1 (stereo not drawn),"inconclusive: 50.1 µM [inhibitor, partial curve, poor fit]",
O=[N+]([O-])c1ccc(N2CCOCC2)cc1,"inconclusive: 14.1 µM [inhibitor, partial curve, poor fit]",
O=C(CCN1C(=O)c2ccccc2C1=O)NC(=S)Nc1cccc(Cl)c1,inactive,
S=C(NCCc1ccccc1)NCc1cccs1,inactive,

# Copied from the list.
# `O=C(c1ccoc1)N1CCN(c2cc(-c3cccc(F)c3)nc3cc(-c4cccc(Cl)c4)nn23)CC1` | Potency: inconclusive: 22.4 µM [inhibitor, partial curve, poor fit]
# `S=C(NCc1ccco1)NCc1ccco1` | Potency: active: 31.6 µM

# The list continues.

Structure (SMILES),Potency,"activity change, negative = inhibition"
Cc1ccc2nc(-c3cccc(OC(C)C)c3)cc(C(=O)O)c2c1,"inconclusive: 35.5 µM [inhibitor, partial curve, poor fit]",
CC1(C)Cc2c(sc3nc(C4CC4)n(N)c(=O)c23)CO1,inactive,
CCOc1ccccc1C(=O)NCCC(=O)O,"inconclusive: 8.91 µM [inhibitor, full curve, poor fit]",
CC(=O)Nc1ccc(-c2csc(Nc3ccc(O)cc3)n2)cc1,"inconclusive: 44.7 µM [inhibitor, partial curve, poor fit]",
COc1cccc(/C=C2/C(=O)NN(c3ccc(F)cc3)C2=O)c1,"inconclusive: 35.5 µM [inhibitor, single point]",
COC(=O)CC(NC(=S)NC(=O)c1ccccc1)c1ccc(Br)cc1 (stereo not drawn),active: 7.94 µM,
CN(C)c1cccc(Nc2nccc3[nH]c(-c4ccsc4)cc23)c1,"inconclusive: 56.2 µM [inhibitor, partial curve, poor fit]",
COc1ccc(-n2cc(-c3ccc4c(c3)OCO4)n(CC(=O)Nc3cc(Cl)ccc3C)c2=O)cc1,"inconclusive: 112 µM [inhibitor, partial curve, poor fit]",
Oc1ccccc1Cc1c(O)ccc2ccccc12,"inconclusive: 79.4 µM [inhibitor, partial curve, poor fit]",
Fc1cccc(Cc2c(-c3ccc(Cl)cc3)nc3ccc(Br)cn23)c1,"inconclusive: 8.91 µM [inhibitor, partial curve, poor fit]",
O=C(O)CC1C(=O)NCCN1CC1CCCCC1 (stereo not drawn),"inconclusive: 112 µM [inhibitor, single point]",
CC(=O)Nc1cccc(C(=O)OC(C(=O)c2ccc(C)cc2)c2ccccc2)c1 (stereo not drawn),"inconclusive: 50.1 µM [inhibitor, partial curve, poor fit]",
Cn1c(-c2ccncc2)nc2cc(C(=O)N[C@H]3CCCCNC3=O)cc(NC(=O)C3CCC3)c21,"inconclusive: 100 µM [inhibitor, single point]",
CCN1CCN(c2nc(-c3ccccc3Cl)nc3ccccc23)CC1,"inconclusive: 31.6 µM [inhibitor, single point]",
Cc1cc(OCC(=O)N2CCC(c3nc4ccccc4s3)CC2)ccc1Cl,"inconclusive: 100 µM [inhibitor, single point]",
COc1cccc(CC2(CO)CCCN(Cc3ccc(-c4ccco4)cc3)C2)c1 (stereo not drawn),inactive,
CCCCc1cc(C(=O)Cc2ccccn2)c(O)cc1O,"inconclusive: 2 µM [inhibitor, partial curve, poor fit]",
Cn1nc(C(=O)OCC(=O)NCc2ccco2)c2ccccc2c1=O,"inconclusive: 31.6 µM [inhibitor, partial curve, poor fit]",
N#Cc1cnn2c1NC1=C(C(=O)CCC1)C2c1ccccc1 (stereo not drawn),inactive,
COc1ccccc1N(CCC#N)C(=O)CN(C)CC(=O)Nc1ccccc1Cl,"inconclusive: 0.708 µM [inhibitor, full curve]",
Cc1csc(NC(=O)CSc2nc(C)nc3c2c(=O)n(C)c(=O)n3C)n1,inactive,
Cc1ccc(S(=O)(=O)NNC(=O)c2snnc2C)cc1,"inconclusive: 6.31 µM [inhibitor, full curve, poor fit]",

# Nothing new here: two of the compounds above.
Structure (SMILES),Potency,"activity change, negative = inhibition"
COCCC(=O)N1CCC2(CC1)CN(C(C)=O)CC2COC (stereo not drawn),inactive,
C=CCn1c(-c2cccs2)nc2nc3ccccc3nc21,"inconclusive: 100 µM [inhibitor, single point]",
